These are yes or no findings as the source states them, for the method shown. In cells and extracts the contact can be indirect. Some entries that bind do so weakly or less than the wild type. For part of these data: Sequences can lack the tags named with a protein.

Protein sequences, listed by entry. Tags and fused reporters are not part of them. Lines headed by an entry give the natural chain unless they say otherwise; changes in a name come on top. Chains listed by the source or under a name are the forms on record and can include a tag or linker. Residues count along the entry.
UniProt Q9UKV8: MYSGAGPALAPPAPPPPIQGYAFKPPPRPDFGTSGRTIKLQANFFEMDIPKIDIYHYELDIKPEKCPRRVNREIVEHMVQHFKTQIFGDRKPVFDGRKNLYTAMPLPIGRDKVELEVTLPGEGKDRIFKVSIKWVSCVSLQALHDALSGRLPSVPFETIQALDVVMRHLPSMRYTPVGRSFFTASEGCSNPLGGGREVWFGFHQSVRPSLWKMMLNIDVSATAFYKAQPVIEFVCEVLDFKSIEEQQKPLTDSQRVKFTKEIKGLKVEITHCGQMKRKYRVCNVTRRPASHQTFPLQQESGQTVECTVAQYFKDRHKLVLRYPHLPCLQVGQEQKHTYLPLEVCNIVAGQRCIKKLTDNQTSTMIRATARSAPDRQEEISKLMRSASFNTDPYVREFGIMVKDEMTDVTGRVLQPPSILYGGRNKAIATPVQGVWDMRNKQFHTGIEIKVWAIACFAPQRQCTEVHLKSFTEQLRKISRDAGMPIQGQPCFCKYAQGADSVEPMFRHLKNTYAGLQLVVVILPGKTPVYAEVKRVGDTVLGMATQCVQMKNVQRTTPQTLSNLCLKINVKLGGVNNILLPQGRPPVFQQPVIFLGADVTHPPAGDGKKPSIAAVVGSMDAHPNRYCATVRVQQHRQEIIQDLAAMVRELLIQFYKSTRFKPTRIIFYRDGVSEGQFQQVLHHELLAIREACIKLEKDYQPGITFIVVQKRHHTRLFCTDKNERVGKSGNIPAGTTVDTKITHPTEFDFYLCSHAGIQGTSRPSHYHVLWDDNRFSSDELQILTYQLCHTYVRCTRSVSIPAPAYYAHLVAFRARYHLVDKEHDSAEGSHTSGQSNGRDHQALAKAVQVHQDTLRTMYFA
myc-Ago2-SIM2-mu (Q9UKV8, form named): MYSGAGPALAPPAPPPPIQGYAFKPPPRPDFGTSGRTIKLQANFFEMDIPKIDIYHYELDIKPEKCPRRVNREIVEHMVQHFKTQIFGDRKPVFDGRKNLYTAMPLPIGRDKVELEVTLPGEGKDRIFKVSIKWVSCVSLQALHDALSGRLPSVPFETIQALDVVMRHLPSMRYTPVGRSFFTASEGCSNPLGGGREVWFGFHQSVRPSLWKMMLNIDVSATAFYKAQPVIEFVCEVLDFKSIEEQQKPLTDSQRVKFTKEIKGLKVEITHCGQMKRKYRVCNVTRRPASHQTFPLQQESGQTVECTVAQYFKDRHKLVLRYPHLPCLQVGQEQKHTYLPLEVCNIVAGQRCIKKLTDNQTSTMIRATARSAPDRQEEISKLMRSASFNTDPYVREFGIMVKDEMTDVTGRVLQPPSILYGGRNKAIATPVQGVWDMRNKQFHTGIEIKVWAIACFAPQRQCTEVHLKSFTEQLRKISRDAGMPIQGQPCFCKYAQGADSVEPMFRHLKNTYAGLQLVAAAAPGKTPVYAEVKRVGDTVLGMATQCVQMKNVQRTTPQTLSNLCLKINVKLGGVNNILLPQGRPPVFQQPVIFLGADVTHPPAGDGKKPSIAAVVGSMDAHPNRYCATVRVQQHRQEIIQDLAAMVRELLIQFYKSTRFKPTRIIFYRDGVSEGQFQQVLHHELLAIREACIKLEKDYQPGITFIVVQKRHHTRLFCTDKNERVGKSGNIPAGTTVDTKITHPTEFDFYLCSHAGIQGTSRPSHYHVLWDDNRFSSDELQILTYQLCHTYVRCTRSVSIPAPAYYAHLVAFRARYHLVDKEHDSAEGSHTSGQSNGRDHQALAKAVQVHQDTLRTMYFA
myc-Ago2-SIM1-mu (Q9UKV8, form named): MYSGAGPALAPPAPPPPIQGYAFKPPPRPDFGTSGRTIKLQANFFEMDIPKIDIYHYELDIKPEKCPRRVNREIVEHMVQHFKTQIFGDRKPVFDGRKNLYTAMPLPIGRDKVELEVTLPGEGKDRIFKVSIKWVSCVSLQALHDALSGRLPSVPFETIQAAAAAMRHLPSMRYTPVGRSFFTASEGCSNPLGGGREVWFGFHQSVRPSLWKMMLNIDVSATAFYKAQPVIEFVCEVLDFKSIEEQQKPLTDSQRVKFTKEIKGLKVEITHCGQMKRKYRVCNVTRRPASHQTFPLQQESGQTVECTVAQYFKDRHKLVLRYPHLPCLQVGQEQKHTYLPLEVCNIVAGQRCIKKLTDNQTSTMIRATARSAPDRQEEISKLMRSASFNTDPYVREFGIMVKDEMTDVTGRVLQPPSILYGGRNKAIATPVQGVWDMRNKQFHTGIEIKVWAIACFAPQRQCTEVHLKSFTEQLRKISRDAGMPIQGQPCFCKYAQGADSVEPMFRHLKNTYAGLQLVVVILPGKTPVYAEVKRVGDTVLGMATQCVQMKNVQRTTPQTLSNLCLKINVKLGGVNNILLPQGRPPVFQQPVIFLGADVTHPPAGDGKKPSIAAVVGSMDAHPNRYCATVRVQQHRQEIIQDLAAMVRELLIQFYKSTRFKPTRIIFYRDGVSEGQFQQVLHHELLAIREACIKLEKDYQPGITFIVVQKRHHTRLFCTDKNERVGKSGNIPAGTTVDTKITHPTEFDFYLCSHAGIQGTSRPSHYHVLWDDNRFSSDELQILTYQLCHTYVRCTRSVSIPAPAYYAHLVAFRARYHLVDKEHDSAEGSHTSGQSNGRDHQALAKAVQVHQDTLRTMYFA
UniProt P63165, residues 1-97: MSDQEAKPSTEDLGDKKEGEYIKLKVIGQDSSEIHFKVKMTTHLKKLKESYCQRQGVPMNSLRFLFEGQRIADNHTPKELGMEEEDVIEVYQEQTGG
UniProt P19525: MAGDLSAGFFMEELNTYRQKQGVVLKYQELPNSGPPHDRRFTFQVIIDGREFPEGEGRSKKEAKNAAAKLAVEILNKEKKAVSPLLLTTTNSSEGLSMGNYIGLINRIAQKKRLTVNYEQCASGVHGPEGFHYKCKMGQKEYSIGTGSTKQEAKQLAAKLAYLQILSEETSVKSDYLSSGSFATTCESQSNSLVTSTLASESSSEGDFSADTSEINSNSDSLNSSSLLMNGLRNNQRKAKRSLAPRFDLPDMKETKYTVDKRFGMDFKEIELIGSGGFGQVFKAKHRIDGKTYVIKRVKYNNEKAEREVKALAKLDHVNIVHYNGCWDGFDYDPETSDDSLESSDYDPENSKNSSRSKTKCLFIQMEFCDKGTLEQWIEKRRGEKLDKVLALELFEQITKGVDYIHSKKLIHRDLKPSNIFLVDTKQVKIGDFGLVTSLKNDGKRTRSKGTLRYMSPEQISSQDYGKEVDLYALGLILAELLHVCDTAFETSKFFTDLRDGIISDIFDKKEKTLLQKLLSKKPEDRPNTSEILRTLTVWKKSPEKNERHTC

Test [1] has as its target T1, Flag-TARBP2-K52R (human) (UniProt Q15633).
T1 sequence: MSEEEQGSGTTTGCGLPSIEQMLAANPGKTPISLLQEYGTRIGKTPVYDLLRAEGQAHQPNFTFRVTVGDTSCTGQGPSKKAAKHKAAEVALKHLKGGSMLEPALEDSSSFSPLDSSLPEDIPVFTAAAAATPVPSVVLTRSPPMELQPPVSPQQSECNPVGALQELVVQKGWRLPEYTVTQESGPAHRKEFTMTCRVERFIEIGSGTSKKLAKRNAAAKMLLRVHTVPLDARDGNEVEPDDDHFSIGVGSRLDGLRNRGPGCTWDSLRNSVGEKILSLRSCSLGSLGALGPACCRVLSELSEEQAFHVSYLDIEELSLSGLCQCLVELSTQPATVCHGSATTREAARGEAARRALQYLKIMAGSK
Description: co-IP; 293T cells transfected with Flag-TARBP2-WT or -K52R with or without the partner's plasmid; lysates IP with anti-Flag antibody, western blot; in Fig. 7c cells treated with 100 uM H2O2 for 3 h before harvest. A general note: Immunoblotting shows a protein as a band on a membrane.

Test [2] deals with myc-Ago2-WT (UniProt Q9UKV8). Description: co-IP; 293T cells transfected with myc-Ago2-WT, -SIM1-mu or -SIM2-mu with/without GFP-SUMO1; IP with anti-Myc antibody, immunoblot with anti-GFP antibody.
Test [3] addresses myc-Ago2-SIM2-mu (UniProt Q9UKV8). Described as above.
The target of test [4] is myc-Ago2-SIM1-mu (UniProt Q9UKV8). Described as above.
The target in test [5] is GST-TARBP2 (expressed without pE1E2S1) (human) (UniProt Q15633). Description: pull-down; purified GST-TARBP2 (from E. coli with or without pE1E2S1) on Glutathione Sepharose 4B used to pull down the same amount of lysates of 293T cells transfected with myc-Ago2 WT, SIM1-mu or SIM2-mu; immunoblot with anti-Myc antibody; only the target purified.
Test [6] has as its target Flag-TARBP2-WT (human) (UniProt Q15633). Description: co-IP; 293T cells transfected with Flag-TARBP2-WT or -K52R with or without the partner's plasmid; lysates IP with anti-Flag antibody, western blot; in Fig. 7c cells treated with 100 uM H2O2 for 3 h before harvest.

On to “endogenous Ago2 (293T) (from UniProt Q9UKV8 1-859)”, for which, in test [1], the binding result is recorded as “binds”.

On to GFP-SUMO1 (from UniProt P63165 1-97), for which the binding result in test [2], in test [3] and in test [4] was “binds” throughout.

As for “myc-Ago2-SIM2-mu (from UniProt Q9UKV8 1-859)”, the binding entry in test [5] is recorded as “binds”. Take myc-Ago2-WT (from UniProt Q9UKV8 1-859): the binding result in test [1] is “binds”. On to HA-PKR (from UniProt P19525 1-551), for which the binding result in test [1] and in test [6] was “binds” throughout. On to “myc-Ago2-SIM1-mu (from UniProt Q9UKV8 1-859)”, for which, in test [5], the binding entry was “binds”.
